PubChem BioAssay AID652259, Drosophila RNAi Screening Center | 2013
The deposit covers about 22,000 reagents; this is a random part of those that have a named target and a result. Over the whole deposit, 233 (1.1%) were called active. 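Light values are raw, unnormalised plate reads; the ratio scores behind the reporter calls were not deposited.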 A plus sign joins genes that one reagent is predicted to hit. Not stated in the record: the amount of reagent, the time to read-out, the dose of the treatment.

Aim: 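Identify new Wingless signalling regulators in fly cells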 (primary screen)
Cells: Drosophila clone 8 imaginal disc epithelial cells
Reagent: long dsRNA against Drosophila genes
Treatment: pathway stimulated by co-transfected Wingless expression plasmid
Measurement: 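Firefly luciferase from a tcf-site Wingless reporter, measured alongside co-transfected Renilla luciferase that tracks transfection; pathway stimulated by a Wingless plasmid; the firefly-to-Renilla ratio is not deposited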
Scale: firefly reporter light: higher = more Wg reporter light, before normalisation; Renilla control light: higher = more transfected or surviving cells
Call rule: 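Strong candidates differ from their plate mean by at least two out of four per-plate statistical tests; weak candidates meet just one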
Calls: active = candidate regulator (raises or lowers reporter); inactive = not a candidate

Gene	amplicon	reporter change call, replicate 1	firefly reporter light, replicate 1	firefly reporter light, replicate 2	Renilla control light, replicate 1	Renilla control light, replicate 2	Call
CG42516 + Pbp49	DRSC06073		5584		1451		inactive
Cpr72Eb (Cuticular protein 72Eb)	DRSC09870		7149		3062		inactive
idc (identity crisis)	DRSC15680		1800	5898	920	1908	inactive
SmydA-9 (SET and MYND domain containing, arthropod-specific, member 9)	DRSC17814		21435		7688		inactive
mTTF (mitochondrial transcription termination factor)	DRSC01909		3205	6560	924	2469	inactive
ste24c + CR30461 (retired record)	DRSC05639		17746		14952		inactive
ste24c + CR30461 (retired record)	DRSC07316		4904		1677		inactive
Spn28Dc (Serpin 28Dc)	DRSC03029		2321	5097	652	2778	inactive
CG4306	DRSC10409		5211		2547		inactive
CG44325	DRSC18039		23788		11779		inactive
CG44325	DRSC18423		22737		9957		inactive
TwdlF (TweedleF)	DRSC12225		5056		2778		inactive
CG8620	DRSC11020		2250	8800	1097	2967	inactive
Syx7 (Syntaxin 7)	DRSC11763		6474		3293		inactive
Hpd (4-hydroxyphenylpyruvate dioxygenase)	DRSC11670		6405		2455		inactive
CG15458	DRSC20529		11440		6912		inactive
CG15650	DRSC04241		1778	5666	560	2148	inactive
CG13658	DRSC14659		24395		19031		inactive
CG7550	DRSC10875		2000	6850	1174	2738	inactive
CG34029	DRSC03909		16114		8508		inactive
CG13426	DRSC06388		7829		2400		inactive
CngA (Cyclic nucleotide-gated ion channel subunit A)	DRSC06580	Wg reporter activity lowered	1684		1442		active
CngA (Cyclic nucleotide-gated ion channel subunit A)	DRSC07362		8305		2362		inactive
tweek	DRSC02433		2360	6996	890	3042	inactive
tweek	DRSC02434		3088	8284	919	3224	inactive
tweek	DRSC02785	Wg reporter activity raised	13396		1707		active
CG2924	DRSC18525		3353	10832	1197	2950	inactive
bora (aurora borealis)	DRSC10744		6355		1708		inactive
CG10581	DRSC11623		18016		6256		inactive
